Target: α1-adrenergic receptors
Assay: Displacement of 3H-prazosin binding to α1-adrenergic receptors (rat brain cortex)
Details: read-out: Displacement (Ki, nM) of the binding of 3H-prazosin to α1-adrenergic receptors, 3H-prazosin 0.5 nM, 37° C., 15 min, pH 7.7
Procedure: Binding to at adrenergen receptors
These were carried out as described by Morrow et al . […] Rat brain cortical tissue was obtained, with homogenization in 20 volumes of Tris-HCl buffer in ice (50 mM, pH=7.7, 4° C.). The homogenate was centrifuged (25,000 rpm/12 min at 4° C.) and the pellet was rehomogenized, being finally resuspended in 50 mM Tris-HCl buffer, pH=7.7 (dilution 1:200). […] The incubation (37° C., 15 min) was terminated by rapid filtering through Whatman GF/C filters, followed by washing twice with […] of Tris-HCl buffer, 50 mM.

For `Cc1nc2n(c(=O)c1CCN1CCC(c3noc4cc(F)ccc34)CC1)CCCC2` [Risperidone], the Ki was 7.1 nM.
